From publication PMC4692422

Protein sequences, listed by entry. Tags and fused reporters are not part of them. Lines headed by an entry give the natural chain unless they say otherwise; changes in a name come on top.
UniProt P42230: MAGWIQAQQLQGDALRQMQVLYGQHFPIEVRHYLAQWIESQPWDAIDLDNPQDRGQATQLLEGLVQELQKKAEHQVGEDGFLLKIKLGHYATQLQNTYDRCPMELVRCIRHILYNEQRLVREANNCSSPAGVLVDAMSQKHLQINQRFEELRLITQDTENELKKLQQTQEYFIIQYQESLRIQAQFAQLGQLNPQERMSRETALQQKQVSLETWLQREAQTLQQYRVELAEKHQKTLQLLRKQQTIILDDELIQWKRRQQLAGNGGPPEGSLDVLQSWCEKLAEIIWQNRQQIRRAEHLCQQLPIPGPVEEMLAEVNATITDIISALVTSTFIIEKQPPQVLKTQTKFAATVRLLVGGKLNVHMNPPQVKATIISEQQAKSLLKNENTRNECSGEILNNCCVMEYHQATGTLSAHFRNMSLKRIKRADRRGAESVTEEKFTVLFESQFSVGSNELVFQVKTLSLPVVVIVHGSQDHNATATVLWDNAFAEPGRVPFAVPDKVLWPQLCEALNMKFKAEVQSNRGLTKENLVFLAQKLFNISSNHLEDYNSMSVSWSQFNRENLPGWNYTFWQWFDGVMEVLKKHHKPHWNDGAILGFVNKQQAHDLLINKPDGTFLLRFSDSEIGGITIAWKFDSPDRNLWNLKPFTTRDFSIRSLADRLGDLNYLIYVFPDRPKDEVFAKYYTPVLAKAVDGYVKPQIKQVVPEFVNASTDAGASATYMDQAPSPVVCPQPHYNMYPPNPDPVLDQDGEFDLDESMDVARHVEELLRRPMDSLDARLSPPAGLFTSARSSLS

Columns and labels:
Test in all cases: co-IP; HEK-293T co-transfected with STAT5 and DUSP4 plasmids; 10 ng/ml hIFNbeta and 25 uM pervanadate for 30 m before lysis; SDS-free RIPA buffer (50 mM Tris-HCl, 0.25% sodium deoxycholate, 150 mM NaCl, 0.1% NP-40, 1 mM EDTA); Flag-STAT5 precipitated on Anti-Flag M2 affinity gel at 4°C for 3 h; DUSP4 detected by western blot
[1] = target: Flag-tagged STAT5 deletion mutant lacking the transcription activation domain (mouse) (UniProt P42230)
[2] = target: Flag-tagged STAT5 deletion mutant lacking the coiled-coil domain (mouse) (UniProt P42230)
[3] = target: Flag-tagged STAT5 deletion mutant lacking the DNA-binding domain (mouse) (UniProt P42230)

Measured: binding

B1: DUSP4-PD (phosphatase-dead mutant DUSP4, C284S) (enzyme, UniProt Q8BFV3 1-398)
chain: MVTMEELREMDCSVLKRLMNRDENGGGGSAGGNGSGSHGALGLLSGGKCLLLDCRPFLAHSAGYIRGSVNVRCNTIVRRRAKGSVSLEQILPAEEEVRARLRSGLYSAVIVYDERSPRAESLREDSTVSLVVQALRRNAERTDICLLKGGYERFSSEYPEFCSKTKALAAIPPPVPPSTNESLDLGCSSCGTPLHDQGGPVEILPFLYLGSAYHAARRDMLDALGITALLNVSSDCPNHFEGHYQYKCIPVEDNHKADISSWFMEAIEYIDAVKDCRGRVLVHSQAGISRSATICLAYLMMKKRVRLEEAFEFVKQRRSIISPNFSFMGQLLQFESQVLTTSCAAEAASPSGPLRERGKATPTPTSQFVFSFPVSVGVHAAPSNLPYLHSPITTSPSC
binds: all assays above

These are yes or no findings as the source states them, for the method shown. Binding seen in cells or lysates may run through a third protein. A result given as binding can be weak or reduced; the word gives no strength.
